Assay results published in PubChem BioAssay AID330 (DTP/NCI, 2004).
The list shows only some results of the screen, not a fair sample: it is rich in T/C values a quarter to a half above the control, in often repeated tests (any T/C) and in doses without a T/C. Further doses and runs are listed elsewhere. T/C is the treated group as % of the vehicle group. Some entries give survivors of the animals treated and no T/C: the source files T/C as zero there, which appears to mark a toxic dose or a test without result, not a measured value. Some doses without a T/C left all or most animals alive at the check, yet need not have been tolerated: the source hardly ever lists a survival T/C far under the control, and the zero likely stands for such cases as well. Survivors were counted at the toxicity check, usually on the fifth day, unless a day is given; later deaths do not show. Schedule codes are those of the source, taken here to give the interval after Q, in days (D) or hours (H), and the number of doses after X. Some entries hold several experiments; their values stand side by side, smallest first. For survival time, this PubChem deposit counts one and a half times the control or more as active, and values a quarter to a half above the control carry no call in these data; other NCI protocols may use other cut-offs. Some T/C values carry the count of animals alive at the toxicity check (mostly the fifth day); without a count, all were alive then. Brackets with × stand for listed records that agree.

Tested on: P388 leukemia ip, CD2F1 mice, survival T/C
Test: NCI In Vivo Anticancer Drug Screen. Data for tumor model P388 Leukemia (intraperitoneal) in CD2F1 (CDF1) mice
Conditions: T/C endpoint: median survival time, higher T/C = longer survival
[1] = dose: 240.0 mg/kg/injection, schedule: Q01DX005 (ip), vehicle: Klucel (hydroxypropylcellulose) (HPC)
[2] = dose: 120.0 mg/kg/injection, schedule: Q01DX005 (ip), vehicle: saline
[3] = dose: 240.0 mg/kg/injection, schedule: Q01DX005 (ip), vehicle: saline
[4] = dose: 200.0 mg/kg/injection, schedule: Q01DX009 (ip), vehicle: saline with Tween-80
[5] = dose: 400.0 mg/kg/injection, schedule: Q01DX009 (ip), vehicle: saline with Tween-80
[6] = dose: 100.0 mg/kg/injection, schedule: Q01DX009 (ip), vehicle: Klucel (hydroxypropylcellulose) (HPC)
[7] = dose: 200.0 mg/kg/injection, schedule: Q01DX009 (ip), vehicle: Klucel (hydroxypropylcellulose) (HPC)
[8] = dose: 12.5 mg/kg/injection, schedule: Q01DX009 (ip), vehicle: saline with Tween-80
[9] = dose: 50.0 mg/kg/injection, schedule: Q01DX009 (ip), vehicle: saline with Tween-80
[10] = dose: 100.0 mg/kg/injection, schedule: Q01DX009 (ip), vehicle: saline with Tween-80
[11] = dose: 120.0 mg/kg/injection, schedule: Q01DX005 (ip), vehicle: saline with Tween-80
[12] = dose: 240.0 mg/kg/injection, schedule: Q01DX005 (ip), vehicle: saline with Tween-80

Q: Which survivor count (dose: 30.0 mg/kg/injection, schedule: Q01DX005 (ip), vehicle: Klucel (hydroxypropylcellulose) (HPC)) does the source give for CC(=O)c1c(C)n(-c2ccccc2)c2c1nnc1ccccc12 here?
A: 6 of 6

Q: What about the survivor count (dose: 60.0 mg/kg/injection, schedule: Q01DX005 (ip), vehicle: Klucel (hydroxypropylcellulose) (HPC)) of the same compound?
A: 6 of 6

Q: What about the survivor count (dose: 120.0 mg/kg/injection, schedule: Q01DX005 (ip), vehicle: Klucel (hydroxypropylcellulose) (HPC)) of the same compound?
A: 6 of 6

Q: What about the survivor count [1] of the same compound?
A: 5 of 6

Q: With Cc1cccc(N=NC2Sc3nc4ccccc4n3C2=O)c1 (centres undefined) as the compound, how does the survivor count [1] read?
A: 2 of 6

Q: c1ccc2c(Nc3ccc(C4=NCCN4)cc3)nnc(Nc3ccc(C4=NCCN4)cc3)c2c1 was tested. Which T/C (dose: 25.0 mg/kg/injection, schedule: Q04DX003 (ip), vehicle: saline with Tween-80) did it give?
A: 127 % of control

Q: And the T/C (dose: 50.0 mg/kg/injection, schedule: Q04DX003 (ip), vehicle: saline with Tween-80)?
A: 127 % of control

Q: What about the survivor count (dose: 200.0 mg/kg/injection, schedule: Q04DX003 (ip), vehicle: saline with Tween-80) of the same compound?
A: 0 of 6

Q: What about the survivor count (dose: 400.0 mg/kg/injection, schedule: Q04DX003 (ip), vehicle: saline with Tween-80) of the same compound?
A: 0 of 6

Q: Which results are given for CN(C[CH2][Sn]([CH3])([CH3])[Cl])C[CH2][Sn]([CH3])([CH3])[Cl]?
A: survivor count (dose: 15.0 mg/kg/injection, schedule: Q01DX005 (ip), vehicle: saline): 0 of 6; survivor count (dose: 60.0 mg/kg/injection, schedule: Q01DX005 (ip), vehicle: saline): 0 of 6; survivor count [2]: 0 of 6; survivor count [3]: 0 of 6

Q: Which survivor count (dose: 200.0 mg/kg/injection, schedule: Q01DX005 (ip), vehicle: distilled water + Tween-80) does the source give for Cn1c(=O)c2c(ncn2CCCl)n(C)c1=O here?
A: 1 of 6

Q: For CCCC(C(CC)CN(C)C)N(C)C (centres undefined), which survivor count [4] is on record?
A: 0 of 6

Q: And the survivor count [5]?
A: 0 of 6

Q: Which results are given for C=C1C(=O)OC2/C=C(/C)C3(O)OC(C)(CC(OC(=O)C(C)C)C12)CC3OC(C)=O (centres undefined)?
A: survivor count [6]: 2 of 6; survivor count [7]: 0 of 6

Q: Which survivor count (dose: 100.0 mg/kg/injection, schedule: Q01DX005 (ip), vehicle: saline with Tween-80) does the source give for CC(=O)Nc1ccc(-c2csc(Nc3ccnc4cc(Cl)ccc34)n2)cc1 here?
A: 6 of 6

Q: What does the source list for O=C(N/N=C\c1cc(Br)cc(Br)c1O)N/N=C/c1cc(Br)cc(Br)c1O?
A: T/C [8]: 97, 100 (2×), 105 (2×), 153 % of control; T/C (dose: 25.0 mg/kg/injection, schedule: Q01DX009 (ip), vehicle: saline with Tween-80): 99, 103, 106, 123, 127, 146, 154 % of control; T/C (dose: 40.0 mg/kg/injection, schedule: Q01DX005 (ip), vehicle: suspension in saline): 133 % of control; T/C [9]: 107, 109, 133, 138, 139, 143, 145 % of control; T/C (dose: 80.0 mg/kg/injection, schedule: Q01DX005 (ip), vehicle: suspension in saline): 137 % of control; T/C (dose: 100.0 mg/kg/injection, schedule: Q01DX009 (ip), vehicle: distilled water + Tween-80): 143 % of control; T/C [10]: 123, 136, 138, 139, 154 (2×), 158 % of control; T/C (dose: 200.0 mg/kg/injection, schedule: Q01DX009 (ip), vehicle: distilled water + Tween-80): 136 % of control [5 of 6 alive]; T/C [4]: 132, 140, 142, 150, 168 % of control; survivor count [4]: 5 of 5 and 6 of 6; survivor count (dose: 280.0 mg/kg/injection, schedule: Q01DX005 (iv), vehicle: suspension in saline): 0 of 6; T/C [5]: 126, 132, 140 [4 of 5 alive], 189 % of control; survivor count [5]: 6 of 6

Q: With CCOc1nc(=O)[nH]c2c1CCCC2 as the compound, how does the survivor count [1] read?
A: 2 of 6

Q: With CC(C)=CCC/C(C)=C/CC1=CC(=O)C=CC1=O as the compound, how does the survivor count [7] read?
A: 0 of 6

Q: Which survivor count (dose: 50.0 mg/kg/injection, schedule: Q01DX005 (ip), vehicle: Klucel (hydroxypropylcellulose) (HPC)) does the source give for Nc1nsc2nc3ccccc3cc12 here?
A: 0 of 6

Q: With CN1CC2CCCCN2CC(Cc2ccccc2)([N+](=O)[O-])C1 (centres undefined) as the compound, how does the survivor count (dose: 400.0 mg/kg/injection, schedule: Q04DX002 (ip), vehicle: saline) read?
A: 4 of 6

Q: COc1cc(C(CC(C)=O)c2cc3c(cc2OC(C)=O)OCO3)cc(OC)c1OC (centres undefined) was tested. Which T/C [11] did it give?
A: 135 % of control

Q: And the survivor count [12]?
A: 1 of 6 and 6 of 6

Q: What does the source list for COc1ccc(C(c2c(O)c3ccccc3oc2=O)N2CCCC2)cc1 (centres undefined)?
A: survivor count [11]: 3 of 6; survivor count [12]: 1 of 6

Q: Which results are given for Oc1ccc(Cl)cc1CN1CCN(Cc2cc(Cl)ccc2O)CC1?
A: survivor count (dose: 60.0 mg/kg/injection, schedule: Q01DX005 (ip), vehicle: saline with Tween-80): 6 of 6; survivor count [11]: 6 of 6; survivor count [12]: 6 of 6

Q: CCN(CC)CCCC(C)N(C)CC(C)CCC1=C(C)CCCC1(C)C (centres undefined) was tested. Which survivor count (dose: 50.0 mg/kg/injection, schedule: Q01DX005 (ip), vehicle: saline) did it give?
A: 3 of 5

Q: And the survivor count (dose: 100.0 mg/kg/injection, schedule: Q01DX005 (ip), vehicle: saline)?
A: 0 of 5

Q: What about the survivor count (dose: 200.0 mg/kg/injection, schedule: Q01DX005 (ip), vehicle: saline) of the same compound?
A: 0 of 5

Q: With CCN(CC)CCOc1ccccc1/C=C/c1noc2ccccc12 as the compound, how does the survivor count [2] read?
A: 3 of 6

Q: And the survivor count [3]?
A: 0 of 6

Q: What does the source list for C=CC(=NC(C)(C)C)Nc1ccccc1Cl?
A: survivor count (dose: 25.0 mg/kg/injection, schedule: Q01DX009 (ip), vehicle: saline): 3 of 6; survivor count [9]: 0 of 6; survivor count (dose: 50.0 mg/kg/injection, schedule: Q01DX009 (ip), vehicle: saline): 0 of 6; survivor count [10]: 0 of 6; survivor count [4]: 0 of 6

Q: Which results are given for CCN(CC)CCN(CC)c1ccc(/C=C/c2ccnc3ccccc23)cc1?
A: survivor count [6]: 0 of 6; survivor count [7]: 0 of 6; survivor count (dose: 400.0 mg/kg/injection, schedule: Q01DX009 (ip), vehicle: Klucel (hydroxypropylcellulose) (HPC)): 0 of 6

Q: For COc1ccc2c(c1O)-c1cccc3c1C(C2)N(CCOCCCl)CC3 (centres undefined), which survivor count (dose: 200.0 mg/kg/injection, schedule: Q04DX003 (ip), vehicle: water) is on record?
A: 2 of 6

Q: CC(C)C1=C(O)C2=C(C(=O)C1=O)C1(C)CCCC(C)(C)C1CC2O (centres undefined) was tested. Which survivor count [10] did it give?
A: 6 of 6

Q: CCn1cnc2c(SC)ncnc21 was tested. Which survivor count (dose: 200.0 mg/kg/injection, schedule: Q04DX003 (ip), vehicle: other) did it give?
A: 0 of 6

Q: What about the survivor count (dose: 400.0 mg/kg/injection, schedule: Q04DX003 (ip), vehicle: other) of the same compound?
A: 0 of 6

Q: With O=C(Nc1cc(S(=O)(=O)O)cc2cc(S(=O)(=O)O)c(N=Nc3cc(Nc4nc(Cl)nc(Nc5ccc(S(=O)(=O)O)cc5)n4)ccc3S(=O)(=O)O)c(O)c12)c1ccccc1 as the compound, how does the survivor count [3] read?
A: 1 of 6

Q: With O=C(NC1CCCCC1)ON1C(=O)C2C3C=CC(C3)C2C1=O (centres undefined) as the compound, how does the T/C [8] read?
A: 128 % of control

Q: And the survivor count [9]?
A: 4 of 6

Q: What about the survivor count [10] of the same compound?
A: 2 of 6

Q: What about the survivor count [4] of the same compound?
A: 0 of 6

Q: How did the survivor count (dose: 200.0 mg/kg/injection, schedule: Q01DX009 (ip), vehicle: saline) turn out when CN=C/C(C(C)=O)=C(\C)O was run?
A: 0 of 6

Q: What does the source list for CN(C)C(=S)S/C=C\C(=O)O?
A: survivor count (dose: 50.0 mg/kg/injection, schedule: Q04DX003 (ip), vehicle: Klucel (hydroxypropylcellulose) (HPC)): 6 of 6; survivor count (dose: 100.0 mg/kg/injection, schedule: Q04DX003 (ip), vehicle: Klucel (hydroxypropylcellulose) (HPC)): 5 of 6; survivor count (dose: 200.0 mg/kg/injection, schedule: Q04DX003 (ip), vehicle: Klucel (hydroxypropylcellulose) (HPC)): 6 of 6

Q: What does the source list for CN=C(N)N/N=C(\C)c1ccc2oc3ccc(/C(C)=N/NC(N)=NC)cc3c2c1?
A: T/C (dose: 6.25 mg/kg/injection, schedule: Q04DX002 (ip), vehicle: saline with Tween-80): 127 % of control; T/C (dose: 12.5 mg/kg/injection, schedule: Q04DX002 (ip), vehicle: saline with Tween-80): 136 % of control; T/C (dose: 25.0 mg/kg/injection, schedule: Q04DX002 (ip), vehicle: saline with Tween-80): 137 % of control; T/C (dose: 50.0 mg/kg/injection, schedule: Q04DX002 (ip), vehicle: saline with Tween-80): 148 % of control; T/C (dose: 100.0 mg/kg/injection, schedule: Q04DX002 (ip), vehicle: saline with Tween-80): 146 % of control
